For assay [1], the target named is C3b with soluble complement receptor 1 (sCR1, CD35) (TP10) (UniProt P01024). In words: SPR; AP regulatory TMCs assembled on the chip with other cofactors (FHL-1, sCR1, MCP); conditions only in the supplement; both purified.
Assay [2] addresses C3b with FH-like protein 1 (FHL-1) (UniProt P01024). The description is as above.

Amino acid sequences for entries named in this document (tags omitted). A change or cut given only in a name is not applied to a line headed by its entry.
UniProt P01024: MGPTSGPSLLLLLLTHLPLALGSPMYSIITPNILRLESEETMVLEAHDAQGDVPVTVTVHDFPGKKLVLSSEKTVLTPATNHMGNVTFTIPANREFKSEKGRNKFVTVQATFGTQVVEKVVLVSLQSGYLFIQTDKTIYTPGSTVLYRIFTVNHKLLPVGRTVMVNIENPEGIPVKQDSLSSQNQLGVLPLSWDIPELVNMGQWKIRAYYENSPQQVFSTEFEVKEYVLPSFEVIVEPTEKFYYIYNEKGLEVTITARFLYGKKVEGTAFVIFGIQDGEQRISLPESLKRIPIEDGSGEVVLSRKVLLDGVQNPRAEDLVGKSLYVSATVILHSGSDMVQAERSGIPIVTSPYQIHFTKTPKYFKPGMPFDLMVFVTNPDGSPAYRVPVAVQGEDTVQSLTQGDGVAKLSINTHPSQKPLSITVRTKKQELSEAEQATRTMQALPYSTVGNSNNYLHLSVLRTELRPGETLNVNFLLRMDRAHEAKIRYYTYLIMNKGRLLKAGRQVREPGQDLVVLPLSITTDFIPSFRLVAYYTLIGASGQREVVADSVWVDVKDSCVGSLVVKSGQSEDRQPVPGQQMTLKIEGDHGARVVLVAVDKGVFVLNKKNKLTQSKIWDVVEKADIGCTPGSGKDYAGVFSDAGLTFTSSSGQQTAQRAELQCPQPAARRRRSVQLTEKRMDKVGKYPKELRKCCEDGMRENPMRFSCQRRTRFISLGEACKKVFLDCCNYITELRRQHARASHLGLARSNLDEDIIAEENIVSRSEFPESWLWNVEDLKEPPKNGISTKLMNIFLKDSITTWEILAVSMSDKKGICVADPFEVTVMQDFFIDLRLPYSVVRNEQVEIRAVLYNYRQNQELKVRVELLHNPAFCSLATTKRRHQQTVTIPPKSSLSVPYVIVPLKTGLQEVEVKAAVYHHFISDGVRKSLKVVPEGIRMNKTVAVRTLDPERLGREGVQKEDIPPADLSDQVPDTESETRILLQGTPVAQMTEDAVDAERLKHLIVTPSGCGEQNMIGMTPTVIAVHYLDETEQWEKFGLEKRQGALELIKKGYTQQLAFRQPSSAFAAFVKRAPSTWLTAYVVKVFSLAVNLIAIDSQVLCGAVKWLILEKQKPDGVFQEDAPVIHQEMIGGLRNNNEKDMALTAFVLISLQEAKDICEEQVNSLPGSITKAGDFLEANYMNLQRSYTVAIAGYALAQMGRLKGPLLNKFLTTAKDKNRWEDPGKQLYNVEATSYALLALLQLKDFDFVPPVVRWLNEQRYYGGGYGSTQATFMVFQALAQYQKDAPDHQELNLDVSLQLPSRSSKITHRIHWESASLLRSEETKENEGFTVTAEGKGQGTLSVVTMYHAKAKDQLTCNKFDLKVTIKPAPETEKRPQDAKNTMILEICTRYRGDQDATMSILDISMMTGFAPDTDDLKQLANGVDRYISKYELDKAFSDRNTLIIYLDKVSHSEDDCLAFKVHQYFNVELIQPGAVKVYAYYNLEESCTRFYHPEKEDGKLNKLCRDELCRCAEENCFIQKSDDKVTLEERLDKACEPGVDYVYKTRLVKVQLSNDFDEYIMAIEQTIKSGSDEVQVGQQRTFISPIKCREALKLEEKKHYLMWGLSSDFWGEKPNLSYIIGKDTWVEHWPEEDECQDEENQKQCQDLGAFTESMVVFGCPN
UniProt P05156: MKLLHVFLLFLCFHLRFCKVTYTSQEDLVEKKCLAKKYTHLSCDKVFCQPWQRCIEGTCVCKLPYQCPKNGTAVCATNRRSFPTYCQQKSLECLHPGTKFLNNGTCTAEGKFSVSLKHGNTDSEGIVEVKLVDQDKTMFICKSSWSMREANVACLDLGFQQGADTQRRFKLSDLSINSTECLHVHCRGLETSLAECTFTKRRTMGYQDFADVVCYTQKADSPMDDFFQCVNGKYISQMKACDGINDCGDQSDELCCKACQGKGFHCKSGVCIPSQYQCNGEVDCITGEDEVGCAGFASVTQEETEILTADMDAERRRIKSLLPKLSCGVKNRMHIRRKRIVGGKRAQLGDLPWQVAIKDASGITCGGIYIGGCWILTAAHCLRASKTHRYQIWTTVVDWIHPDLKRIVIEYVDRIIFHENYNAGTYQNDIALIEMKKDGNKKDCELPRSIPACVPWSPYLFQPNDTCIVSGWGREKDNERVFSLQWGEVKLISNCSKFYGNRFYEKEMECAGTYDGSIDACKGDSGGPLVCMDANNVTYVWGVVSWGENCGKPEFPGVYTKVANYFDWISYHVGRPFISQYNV

Results are given in words; binding and its absence hold for the method and conditions named. Some results given as binding are weak or reduced against the parent protein; the word gives no strength.

Turning to “inactive FI (S525A FI) (from UniProt P05156 19-335; P05156 340-583) (enzyme)”, the binding entry in assay [1] and in assay [2] was “binds” each time.

The values above are taken from PMC9832388.
